From article PMC7819943, “Rice protein-binding microarrays: a tool to detect cis-acting elements near promoter regions in rice”
The other results are listed elsewhere or left out.

Each sequence was assayed against T1, OsSMF1 (Oryza sativa, UniProt Q6ZLB0 1-436) (assay: protein-binding microarray (RPBM); PBS, 2% BSA, 51.3 ng/ul salmon testes DNA, 50 uM zinc acetate, 200 nM TF, 25 C, 1 h; high values mean tight binding). Details: protein: recombinant; tags: N-terminal polyhistidine and DsRed monomer fusion (pET32a); chain copies: 2; label: CyDye5-dUTP incorporated in the synthesized complementary strand; 3' TTTTT single-stranded linker to array surface; dsDNA, one strand shown.
T1 sequence: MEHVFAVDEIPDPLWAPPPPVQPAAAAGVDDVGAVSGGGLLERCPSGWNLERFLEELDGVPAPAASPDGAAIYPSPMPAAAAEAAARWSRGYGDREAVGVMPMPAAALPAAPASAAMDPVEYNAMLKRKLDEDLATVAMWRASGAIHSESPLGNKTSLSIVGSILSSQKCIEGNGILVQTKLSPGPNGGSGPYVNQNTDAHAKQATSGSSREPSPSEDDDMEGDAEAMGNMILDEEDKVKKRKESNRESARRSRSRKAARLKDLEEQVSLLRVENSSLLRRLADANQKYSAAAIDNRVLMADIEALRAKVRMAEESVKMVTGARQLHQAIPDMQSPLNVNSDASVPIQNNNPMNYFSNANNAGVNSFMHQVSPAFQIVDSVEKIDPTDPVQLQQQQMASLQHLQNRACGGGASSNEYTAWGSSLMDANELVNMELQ
Procedure, shortened: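 Binding signal here means per-feature fluorescence intensity in arbitrary units. The values were read on an Axon 4000B scanner after a custom Agilent array, double-stranded by primer extension with Cy5-dUTP, was incubated with 200 nM protein at 25 °C for 1 h in PBS with 2% BSA, salmon testes DNA and 50 µM zinc acetate, then washed. The proteins were transcription factors with an N-terminal polyhistidine tag and DsRed, expressed in E. coli BL21-CodonPlus and purified on Ni–NTA.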
With “AAGTATGGGCCCGCTGATGTGTAGCCTTGCTTGGAGGCCCCGGAGTCACCTAGTGCAG” the binding signal was 3560 fluorescence intensity (a.u.).
With “CTATTGGAGCTATAGGGTTCTACAAGTCAGCAAGACATGTCGGAGTCACCTAGTGCAG” the binding signal was 5160 fluorescence intensity (a.u.).
“TTCGCCTGCGGCGCGTGACGTCACGTCGTCGTCGTCGGCCCGGAGTCACCTAGTGCAG” was tested, and the binding signal was 19200 fluorescence intensity (a.u.).
With “AAGTAGCCCGGATCTCCCAGCTTCCCTCGAGCTGACCTCACGGAGTCACCTAGTGCAG” the binding signal was 3960 fluorescence intensity (a.u.).
“GCTGGTGCGCCGCTGCAACCCACGCGTCAAGTTCGCCCGGCGGAGTCACCTAGTGCAG” was tested, and the binding signal was 3830 fluorescence intensity (a.u.).
With “CCCACCATCTTTTATTATTTATGTGTAACTGACATGTGGACGGAGTCACCTAGTGCAG” the binding signal was 3420 fluorescence intensity (a.u.).
With “CTTGATGCGCTCGCCGCTGATCTGGAGGACGTTGCCGTCCCGGAGTCACCTAGTGCAG” the binding signal was 4150 fluorescence intensity (a.u.).
In the case of “TACTTGGTCCCACGTGTTATATATACACTGCGTCTTGGAGCGGAGTCACCTAGTGCAG”, the binding signal is reported as 8580 fluorescence intensity (a.u.).
For “CATCTCCATTCTTTCATCCTCATCTCTAATGGAGAATTTCCGGAGTCACCTAGTGCAG”, the binding signal was 3920 fluorescence intensity (a.u.).
For “GGGTCTCATGCGACAGCAGCGGGAAGTGGGTCACTGGGCTCGGAGTCACCTAGTGCAG”, the binding signal was 3810 fluorescence intensity (a.u.).
With “ACCACGCCATGAGTTGCATCCATGCATGCTTCTATTCATTCGGAGTCACCTAGTGCAG” the binding signal was 3360 fluorescence intensity (a.u.).
With “TCCATGACTATGCAAAACCATCTATCTCTCTTTAAACATGCGGAGTCACCTAGTGCAG” the binding signal was 3740 fluorescence intensity (a.u.).
In the case of “CCTCATTGGCAATGGTGACGAGGGATCGTGGCATTCAGGGCGGAGTCACCTAGTGCAG”, the binding signal is reported as 3980 fluorescence intensity (a.u.).
“GCGGTCGAATGCTGCTGCCACCTGCTGTCTCATGATCTTGCGGAGTCACCTAGTGCAG” was tested, and the binding signal was 3660 fluorescence intensity (a.u.).
With “AAACACTGAAATTTTAGCATCACGAAGTTCTCACCGAGACCGGAGTCACCTAGTGCAG” the binding signal was 5200 fluorescence intensity (a.u.).
For “AAGCTAACTTGTGTTGCCTACACAAGTACTAAAATGGCATCGGAGTCACCTAGTGCAG”, the binding signal was 63600 fluorescence intensity (a.u.).
“TTGCTTATCCACACACGTAAGCATTGTTTCTTCAGTCTACCGGAGTCACCTAGTGCAG” was tested, and the binding signal was 18200 fluorescence intensity (a.u.).
With “TTACATACTGTATCATACTGACGTCAACGTATAATATTCCCGGAGTCACCTAGTGCAG” the binding signal was 8340 fluorescence intensity (a.u.).
In the case of “GCCAATCTCCACCACCACATCATCTTCTTCCTCCTCCACCCGGAGTCACCTAGTGCAG”, the binding signal is reported as 6770 fluorescence intensity (a.u.).
For “TTAGTGATATGCGAAACATAACTCTATATTGGCCTTCTCCCGGAGTCACCTAGTGCAG”, the binding signal was 35900 fluorescence intensity (a.u.).
“ACAAACACTAGTACCATTTTGTAAATTATGTATGACGCGGCGGAGTCACCTAGTGCAG” was tested, and the binding signal was 7760 fluorescence intensity (a.u.).
“GCCAGCCGCCGCCGTCGTGTCGCCCGTCGCCGGCCGCCGACGGAGTCACCTAGTGCAG” was tested, and the binding signal was 3520 fluorescence intensity (a.u.).
“TGGCACATGACACATAACCCCGAGTATTATGATCTTAAAGCGGAGTCACCTAGTGCAG” was tested, and the binding signal was 3380 fluorescence intensity (a.u.).
For “GGGGTGTTTGGTTGAGGGGTGGGTGGGATGGATTGGTCCTCGGAGTCACCTAGTGCAG”, the binding signal was 5240 fluorescence intensity (a.u.).
With “AAGTTAATATTTCAGTTACATTGCATCATAATGTTGTTGCCGGAGTCACCTAGTGCAG” the binding signal was 3650 fluorescence intensity (a.u.).
“ACCGACTAGCAGGCAGCACGTCATCGCTGGCCTTCATCACCGGAGTCACCTAGTGCAG” was tested, and the binding signal was 10900 fluorescence intensity (a.u.).
For “GCCGCCGCTCCCTCCCAATGACCCGCCGGATCTCCTAGTGCGGAGTCACCTAGTGCAG”, the binding signal was 3160 fluorescence intensity (a.u.).
With “GGCTTGTTTGGTTTGCTATCATGCCAAAATATTGGCAATACGGAGTCACCTAGTGCAG” the binding signal was 30400 fluorescence intensity (a.u.).
“CATCAGGCAGTGCATCATCATTCATCACCTTCTCCTCCTTCGGAGTCACCTAGTGCAG” was tested, and the binding signal was 3990 fluorescence intensity (a.u.).
For “AATGGCTGAAAAGCTGTACAATAGGGTGTCAGAAAAGGAACGGAGTCACCTAGTGCAG”, the binding signal was 3720 fluorescence intensity (a.u.).
In the case of “CAATAACCACATCGACAAATATTGCGCACACGCACGCACGCGGAGTCACCTAGTGCAG”, the binding signal is reported as 4910 fluorescence intensity (a.u.).
In the case of “AATTTAGGAGTTAGAACTCTACCAAATAGACCTTACACATCGGAGTCACCTAGTGCAG”, the binding signal is reported as 5170 fluorescence intensity (a.u.).
In the case of “AGAACATGGCCATGCCACATATTGCCATCGCTCCATCGCTCGGAGTCACCTAGTGCAG”, the binding signal is reported as 3310 fluorescence intensity (a.u.).
In the case of “CTGCAAAGTGCAATTGAAGGGGCTGAGAATGCATGTTACGCGGAGTCACCTAGTGCAG”, the binding signal is reported as 3310 fluorescence intensity (a.u.).
“AGTCATCCAGTCACCGCCTAGGCCCAGTAACCAATGGTAGCGGAGTCACCTAGTGCAG” was tested, and the binding signal was 3330 fluorescence intensity (a.u.).
For “TTACCTCCACTATTATCACTAGCTTGTTCCTATTCTCTGGCGGAGTCACCTAGTGCAG”, the binding signal was 3300 fluorescence intensity (a.u.).
With “TACCTGATCAACTTTGACTAATTTTATCCATGTCATTCAGCGGAGTCACCTAGTGCAG” the binding signal was 4780 fluorescence intensity (a.u.).
In the case of “GTGAAATCAAGAACGTCACTCCCTATCGCTTTCTCTTCTCCGGAGTCACCTAGTGCAG”, the binding signal is reported as 3970 fluorescence intensity (a.u.).
“TAAATCCAGACTCCGGACGGCGCAGTCGTCGTCATTCTCCCGGAGTCACCTAGTGCAG” was tested, and the binding signal was 4210 fluorescence intensity (a.u.).
With “ACTCTCACCTCCCCTCCGGCCTCCGCTCCCTTCCGCACCGCGGAGTCACCTAGTGCAG” the binding signal was 19600 fluorescence intensity (a.u.).
For “ACTCGAGTACACGTATACATTGTTTGTTCCGTTTCGTGATCGGAGTCACCTAGTGCAG”, the binding signal was 8980 fluorescence intensity (a.u.).
In the case of “CTCGCAACCTGGAGTGACTGTGTGAATTTCCATGCGCATGCGGAGTCACCTAGTGCAG”, the binding signal is reported as 4820 fluorescence intensity (a.u.).
